Data on 42 sequences can be found in paper PMC7819943, “Rice protein-binding microarrays: a tool to detect cis-acting elements near promoter regions in rice”.

Protein sequences, listed by entry. Tags and fused reporters are not part of them.
UniProt Q0JBA9, entry or part of it: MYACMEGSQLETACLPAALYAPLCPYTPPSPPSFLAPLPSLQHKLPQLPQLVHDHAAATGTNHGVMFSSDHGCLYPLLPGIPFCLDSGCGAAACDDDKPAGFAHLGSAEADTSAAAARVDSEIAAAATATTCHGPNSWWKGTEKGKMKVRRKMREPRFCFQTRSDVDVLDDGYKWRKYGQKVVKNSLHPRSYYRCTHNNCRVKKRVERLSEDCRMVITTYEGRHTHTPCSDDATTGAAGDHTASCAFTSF

The list shows a part of the results.

This experiment deals with OsWRKY34 (Oryza sativa, UniProt Q0JBA9 1-250). Briefly: protein-binding microarray (RPBM); PBS, 2% BSA, 51.3 ng/ul salmon testes DNA, 50 uM zinc acetate, 200 nM TF, 25 C, 1 h; high values mean tight binding. The conditions noted are these: protein: recombinant; tags: N-terminal polyhistidine and DsRed monomer fusion (pET32a); label: CyDye5-dUTP incorporated in the synthesized complementary strand; 3' TTTTT single-stranded linker to array surface; dsDNA, one strand shown. Put shortly: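 An Axon 4000B scanner gave the binding signal as per-feature fluorescence intensity in arbitrary units. This followed washing of a custom Agilent array that had been incubated for 1 h at 25 °C with 200 nM protein in PBS, 2% BSA, salmon testes DNA and 50 µM zinc acetate. The proteins were transcription factors fused at the N-terminus to polyhistidine and DsRed, expressed in E. coli BL21-CodonPlus and purified on Ni–NTA.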
In the case of “GTATTTATTTTGGCGGAGTGGTTATTTATCTTCCATTTCACGGAGTCACCTAGTGCAG”, the binding signal was 9430 fluorescence intensity (a.u.). As to “GAGACAAGCGGGTCGCCTTTTAAGTACGTTTTGACCGCTTCGGAGTCACCTAGTGCAG”, the binding signal is 8030 fluorescence intensity (a.u.). With “TAATACTACTATCTTCTGTTAGGCTTTCACATTTAACTATCGGAGTCACCTAGTGCAG” the figure was 10300 fluorescence intensity (a.u.); with “CTCCTACCGCCTCGTCTTCCACGAGTGCCACCGCGACCTCCGGAGTCACCTAGTGCAG”, 8640 fluorescence intensity (a.u.); with “TATTTGATCTGTTCATGTTTTACTGCTTAGTTTGTGTAGACGGAGTCACCTAGTGCAG”, 11700 fluorescence intensity (a.u.). Regarding “TCTGTATTCATCATTTCCGCGATTCCACCCTCTCTCTCTCCGGAGTCACCTAGTGCAG”, the binding signal is 8350 fluorescence intensity (a.u.).

For the sequence “CCGGCCAACTTTTTTTTTCCAGTGAATTGCATGCATGTAACGGAGTCACCTAGTGCAG”, the binding signal is 8100 fluorescence intensity (a.u.). Take “GGAACCACCTCGACCTCTTCTTCTGGCTGCTCGCCGTGCTCGGAGTCACCTAGTGCAG”: the binding signal is 9720 fluorescence intensity (a.u.).

“TTTGTTTGGTTTAAATAGTTGAGGTAATTTAGGGGTTTAGCGGAGTCACCTAGTGCAG”: the binding signal is 9020 fluorescence intensity (a.u.). With “AAAGCCGATAGATATATGTATTACCTTTCCTTTGTTGCACCGGAGTCACCTAGTGCAG” the figure was 8820 fluorescence intensity (a.u.). Turning to “TTGGCGAGCGAGCTGTGTGGTGGTGGTGGTGGGTGAGTGGCGGAGTCACCTAGTGCAG”, the binding signal is 13600 fluorescence intensity (a.u.). The result for “CACCGCCACCTACTCGCCACTCTTTTACTCGGCGCGCCTTCGGAGTCACCTAGTGCAG” reads 13900 fluorescence intensity (a.u.). The result for “AGGCTCAAATCCTCCAGTACCCATCCACCTGACGGCTTTCCGGAGTCACCTAGTGCAG” reads 8270 fluorescence intensity (a.u.); that for “TGCATGTGGAGTACTTTGTCCAGCTTTTCTAGCATGCCACCGGAGTCACCTAGTGCAG”, 8320 fluorescence intensity (a.u.); that for “AATGATCATCATTTCATGTGTACTCGTATTATGGCACCCACGGAGTCACCTAGTGCAG”, 8700 fluorescence intensity (a.u.). The result for “GCACCTACAAGACCAACCTGCTCCAGCTCGCCAAAAACCTCGGAGTCACCTAGTGCAG” reads 9040 fluorescence intensity (a.u.); that for “AAAAGCATCGTCCCATCGTCTTCACACATTTTACTACGAGCGGAGTCACCTAGTGCAG”, 8970 fluorescence intensity (a.u.); that for “GTAATTGGGCTTTCTTTGGGTAGTTATCGCTGGGCTTAATCGGAGTCACCTAGTGCAG”, 9250 fluorescence intensity (a.u.).

Take “ATTATGTTAGGGTATTCATAGAGTTGTTTTTTTTTTTGATCGGAGTCACCTAGTGCAG”: the binding signal was 12600 fluorescence intensity (a.u.). With “AAATTGTTGCATATTCTGTAGTCCTTTTTTTTAATGAGATCGGAGTCACCTAGTGCAG” the figure was 8210 fluorescence intensity (a.u.); with “ATTCTTGTTTTTCTTTTTTTTTTTATTGTCCAATTGGATTCGGAGTCACCTAGTGCAG”, 10100 fluorescence intensity (a.u.). For the sequence “CTTGCTCGCTCGCGCGCCGTCTCTGCCGCGATCTCTCTCTCGGAGTCACCTAGTGCAG”, the binding signal is 11400 fluorescence intensity (a.u.).

“CAAATGTTGTTCTTGCCATTTTCCTGTTTGAAGTTTTCCACGGAGTCACCTAGTGCAG”: the binding signal is 12000 fluorescence intensity (a.u.). Consider “ACCAGTCACAGACCGGTCATTCTTGTCCACCACGCGTCAGCGGAGTCACCTAGTGCAG”, for which the binding signal was 9340 fluorescence intensity (a.u.). Regarding “TTTGTTGGTGTTATGTTGACTTTTTTTTGGGAACATTACTCGGAGTCACCTAGTGCAG”, the binding signal was 17400 fluorescence intensity (a.u.). Take “GTATAGTCCAATTCTCGTGCAGCTTCCACAAACCTCGCTTCGGAGTCACCTAGTGCAG”: the binding signal was 11200 fluorescence intensity (a.u.). With “GTGGGATATATAACTCGTTGCCATGCACACTATACCCTTACGGAGTCACCTAGTGCAG” the figure was 8380 fluorescence intensity (a.u.); with “GTTTTATGGCCATCGGTGTAGCTTGTATGCATATATCTTTCGGAGTCACCTAGTGCAG”, 12900 fluorescence intensity (a.u.). As for “GCCGCTCCCTGCCTCCGCGTGTCGTCGTCGCCCAGCTGCACGGAGTCACCTAGTGCAG”, the binding signal is 9050 fluorescence intensity (a.u.).

Consider “AGATTTGTGCTCTGACCCACTTCACTCACTTAGTCTCTAGCGGAGTCACCTAGTGCAG”, for which the binding signal is 8680 fluorescence intensity (a.u.). As for “TCTTGTCGCATTTGGAATAGTCGTCGTTGGTTTCTTGCCGCGGAGTCACCTAGTGCAG”, the binding signal is 8820 fluorescence intensity (a.u.). As for “TCTCGTGTTCCTCTTCACTACCACTTCTAGAAGCTTCCTCCGGAGTCACCTAGTGCAG”, the binding signal is 8020 fluorescence intensity (a.u.). In the case of “CCATGTCGGAGGTGGTGCGGATGCTGGAAGGGGAAGGACTCGGAGTCACCTAGTGCAG”, the binding signal was 8630 fluorescence intensity (a.u.). Take “GATTGACTTGCCAAACATTTTACATGCGTTTATTGTACCACGGAGTCACCTAGTGCAG”: the binding signal is 9920 fluorescence intensity (a.u.). The result for “CACCCCAGCCGCCTTCGCTTTACACATGCAACTAACAAACCGGAGTCACCTAGTGCAG” reads 8060 fluorescence intensity (a.u.). With “GAAAAATGATCTGTCTCCTCTTTGCATTTTTGTGGTGATGCGGAGTCACCTAGTGCAG” the figure was 8680 fluorescence intensity (a.u.).

As to “CCTCGTTGTCGTTGTCGTCGTCTTCCTTTGACTCCCCTTACGGAGTCACCTAGTGCAG”, the binding signal was 14600 fluorescence intensity (a.u.). As for “CAGATTTCTGTGTCCCCGGTCCCGTCAAAATACCCCAGTACGGAGTCACCTAGTGCAG”, the binding signal is 8390 fluorescence intensity (a.u.).

For the sequence “GGTACGTCTCTCTCGCACTCTCGTGTCCTCTCGACAGGACCGGAGTCACCTAGTGCAG”, the binding signal is 9140 fluorescence intensity (a.u.). “CACATACATCCATCCATCCATCCTTTGATTTTTCATCTCCCGGAGTCACCTAGTGCAG”: the binding signal is 9480 fluorescence intensity (a.u.). As to “GAGCTACTATACCTTTTGATTACAGCAAACTTACCATTCCCGGAGTCACCTAGTGCAG”, the binding signal was 8170 fluorescence intensity (a.u.).

As for “CCGCCGCCGCCGCCGCCGCCGCCGCAGTGACCACCTCGCTCGGAGTCACCTAGTGCAG”, the binding signal was 8780 fluorescence intensity (a.u.).
